Holding throughout (experiment): co-IP; HEK293 cells transfected with FLAG-tagged HER3 (or deletion mutant) and ASPN or empty vector; anti-FLAG beads; immunoblot for HER3, HER2, ASPN
(In general: In western blotting, separated proteins are transferred to a membrane and probed.)

Sequences of proteins named here, by UniProt entry; tags and fusion partners are left off. A change or cut given only in a name is not applied to a line headed by its entry.
UniProt P21860: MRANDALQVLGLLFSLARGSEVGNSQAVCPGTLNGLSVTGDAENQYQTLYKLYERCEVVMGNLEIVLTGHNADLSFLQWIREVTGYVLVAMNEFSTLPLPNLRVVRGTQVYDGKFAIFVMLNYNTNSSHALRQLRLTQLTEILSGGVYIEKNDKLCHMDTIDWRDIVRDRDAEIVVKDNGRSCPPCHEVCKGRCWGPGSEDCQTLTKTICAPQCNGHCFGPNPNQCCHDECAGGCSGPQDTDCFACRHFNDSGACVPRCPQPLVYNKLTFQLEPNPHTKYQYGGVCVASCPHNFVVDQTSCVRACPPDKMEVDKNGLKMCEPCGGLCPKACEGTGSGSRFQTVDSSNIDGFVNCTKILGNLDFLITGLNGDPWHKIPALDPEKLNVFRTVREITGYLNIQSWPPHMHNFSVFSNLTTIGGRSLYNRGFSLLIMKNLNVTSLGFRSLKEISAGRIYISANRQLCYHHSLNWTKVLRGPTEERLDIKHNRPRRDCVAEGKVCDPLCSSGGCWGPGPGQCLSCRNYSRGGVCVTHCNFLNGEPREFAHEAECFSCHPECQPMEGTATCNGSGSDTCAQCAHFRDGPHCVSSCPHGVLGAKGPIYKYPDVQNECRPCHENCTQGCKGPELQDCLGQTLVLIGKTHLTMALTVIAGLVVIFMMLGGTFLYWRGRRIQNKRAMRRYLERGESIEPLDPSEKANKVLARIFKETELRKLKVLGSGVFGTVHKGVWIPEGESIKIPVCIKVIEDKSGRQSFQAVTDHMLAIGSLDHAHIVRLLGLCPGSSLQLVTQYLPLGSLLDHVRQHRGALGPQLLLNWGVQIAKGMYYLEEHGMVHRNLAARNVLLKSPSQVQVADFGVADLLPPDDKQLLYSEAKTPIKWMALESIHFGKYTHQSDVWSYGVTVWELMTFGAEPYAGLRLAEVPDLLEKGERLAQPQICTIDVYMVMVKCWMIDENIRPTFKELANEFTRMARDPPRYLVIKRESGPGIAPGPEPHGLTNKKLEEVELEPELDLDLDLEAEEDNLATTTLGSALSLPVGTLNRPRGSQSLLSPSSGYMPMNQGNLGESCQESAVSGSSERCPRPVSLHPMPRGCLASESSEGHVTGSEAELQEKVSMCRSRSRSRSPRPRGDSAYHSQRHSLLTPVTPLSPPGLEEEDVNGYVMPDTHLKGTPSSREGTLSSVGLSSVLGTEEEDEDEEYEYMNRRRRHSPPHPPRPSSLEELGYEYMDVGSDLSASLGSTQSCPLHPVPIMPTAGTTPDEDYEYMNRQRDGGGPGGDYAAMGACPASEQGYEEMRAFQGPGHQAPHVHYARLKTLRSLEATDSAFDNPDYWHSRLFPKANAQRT

Experiment [1] has as its target HER3ΔI-3xFLAG (UniProt P21860).
For experiment [2], the target named is HER3ΔI/III-3xFLAG (UniProt P21860).
Experiment [3] addresses HER3ΔIII-3xFLAG (UniProt P21860).

Results are given in words; binding and its absence hold for the method and conditions named. In cells and extracts the contact can be indirect. Binding can be weak; no strength is given.

B1: human ASPN (transfected) (ligand, UniProt Q9BXN1 33-380)
chain: DMEDTDDDDDDDDDDDDDDEDNSLFPTREPRSHFFPFDLFPMCPFGCQCYSRVVHCSDLGLTSVPTNIPFDTRMLDLQNNKIKEIKENDFKGLTSLYGLILNNNKLTKIHPKAFLTTKKLRRLYLSHNQLSEIPLNLPKSLAELRIHENKVKKIQKDTFKGMNALHVLEMSANPLDNNGIEPGAFEGVTVFHIRIAEAKLTSVPKGLPPTLLELHLDYNKISTVELEDFKRYKELQRLGLGNNKITDIENGSLANIPRVREIHLENNKLKKIPSGLPELKYLQIIFLHSNSIARVGVNDFCPTVPKMKKSLYSAISLFNNPVKYWEMQPATFRCVLSRMSVQLGNFGM
As to B1, the binding entry in experiment [1] is given as “binds”; in experiment [2], “binds weakly”; in experiment [3] it was “binds”.

The record behind these values is article PMC12406728.
